# Source: the supplement of paper PMC8007513
# The list shows a part of the results. Most values come without repeats; read them as rough.
# System: Saccharomyces cerevisiae BY4743
# Test: growth (OD600) relative to untreated control; higher = less growth inhibition
# Conditions: compound concentration: 133 uM; 20 h
# Procedure: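 NMCCC compounds (133 uM, no IPBC) tested alone against Saccharomyces cerevisiae BY4743 in YPD, 96-well plates, starting OD600 ~0.1. Growth was read as OD600 at 20 h and expressed as % of the untreated control. Single pass.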
row,SMILES,growth [%]
1,NC(=O)c1ccsc1NC(=O)c1ccc(F)cc1F,79.7
2,Cc1nc(NC(=O)CSc2nncn2C2CC2)sc1C,102
3,CC(=O)c1c(C)[nH]c(C(=O)N2CCN(Cc3ccc(C#N)cc3)CC2)c1C,100
4,CCOC(=O)N1CCN(C(=O)CN(c2ccccc2)S(=O)(=O)c2ccc(OCC)cc2)CC1,103
5,Cc1cc(C)c(NC(=O)CCCN(c2ccc3c(c2)OCO3)S(C)(=O)=O)c(C)c1,115
6,COc1ccc(-c2cc(C(=O)NCc3nccn3C)on2)cc1,104
7,Cc1ccc(Nc2nc(COC(=O)c3nccnc3N)cs2)cc1,82.5
8,CCN(CC(=O)NC1CCS(=O)(=O)C1)C(=O)c1ccc(-n2cncn2)cc1 (stereo not drawn),103
9,Cc1ccc(OCC(=O)Nc2cc(-c3ccc(F)c(F)c3)no2)cc1C,89.1
10,CC(=O)\C1=C(/O)C(=O)N(C1C2=CC=CN=C2)C3=CC=C(OCC(O)=O)C=C3 (stereo not drawn),87.3
11,FC1=CC=CC(=C1)COC2=CC=C(NC(=O)CN3\C=C/C=C\C3=O)C=C2Cl,94
12,COc1cc(CC(=O)Nc2nc(CN3CC(C)OC(C)C3)cs2)cc(OC)c1OC (stereo not drawn),110
13,CCOC(=O)c1nc2ccccc2nc1Nc1cc(C)ccc1C,87.2
14,O=C(CCCN1C(=O)CSc2ncccc21)NCC1CCCO1 (stereo not drawn),95.8
15,CC(C)CCN(Cc1ccco1)S(=O)(=O)c1ccc2c(c1)C(C)(C)C(=O)N2C,94.9
16,CCN(CC)CCNC(=O)CN1\C=N/C2=C(C(=NO2)C)C1=O,76.3
17,CCCC/1=C/C(=O)N/2\N=C(/SC2=N1)N(C)CC(=O)NCC3=CC(=CC=C3OC)Br,107
18,Cl\C1=C(\CCCC1)C(=O)NC2=CC=C3OCOC3=C2,97.4
19,CCc1ccc(NS(=O)(=O)c2ccc(C(=O)N(C)C)s2)cc1,104

row,SMILES,growth [%]
1,COC1=CC=C(NC(=O)\C2=C(/C)C(=O)OC23CCC(C)CC3)C=C1Cl (stereo not drawn),106
2,COc1cc(OC)c(NS(=O)(=O)c2ccc3c(c2)CCCC(=O)N3)cc1Cl,102
3,CCSc1ncc(Cl)c(C(=O)Nc2nc(C)c(C(=O)OCC(C)C)s2)n1,103
4,CN1C(=O)\C=C(\CNC(=O)CCNC(=O)C2=CC(=NC3=CC=CC=C23)O)N(C)C1=O,99.6
5,CCC(=O)Nc1nc2ccc(CC(=O)NCCN(C)C3CCCCC3)cc2s1,116
6,CCCCn1c(=O)[nH]c2nc3cc(NC(C)=O)ccc3nc2c1=O,103
7,Cc1ccc(CNC(=O)Cc2cn3ccsc3n2)n1C,104
8,CCN1CCCC1CNC(=O)c1cnc(SC)nc1-c1ccccc1 (stereo not drawn),112
9,COC(=O)COC1=CC=C2C(=O)\C(=C/OC2=C1)OC3=CC=C(C=C3)C(C)(C)C,111
10,Fc1ccc(-c2csc(-c3cccs3)n2)cc1,88.8
11,Nc1cn(-c2ccccc2)nc1-c1ccc(Cl)cc1,104
12,CC(C)[C@H](NC(=O)Cc1ccccc1)C(=O)OCC(=O)N1CCN(c2cccc(Cl)c2)CC1,97.1
13,Cc1ccc(-c2ccc(CCC(=O)Nc3ccc(C(N)=O)cc3)o2)cc1C,97.9
14,CN(Cc1ccc(Cl)s1)C(=O)CSc1n[nH]c(-c2cccs2)n1,101
15,Cc1cccc(NC(=O)CCSc2nc3nc(C)ccc3o2)c1,106
16,CCOC(=O)c1cn(CC(=O)Nc2cc(C)cc(C)c2)nn1,106
17,N#Cc1ccsc1NC(=O)CCNC1(c2ccc(Br)cc2)CCCC1,107
18,CS(=O)(=O)NCCc1ccc(C(=O)OCC(=O)N2CCCc3ccccc32)s1,100
19,Cc1cc(C)c(S(=O)(=O)NCC(=O)Nc2ccc(C(N)=O)cc2)c(C)c1,99.6

# For reference, eight of the compounds above.
row,SMILES,growth [%]
10,CC(=O)\C1=C(/O)C(=O)N(C1C2=CC=CN=C2)C3=CC=C(OCC(O)=O)C=C3 (stereo not drawn),87.3
11,FC1=CC=CC(=C1)COC2=CC=C(NC(=O)CN3\C=C/C=C\C3=O)C=C2Cl,94
12,COc1cc(CC(=O)Nc2nc(CN3CC(C)OC(C)C3)cs2)cc(OC)c1OC (stereo not drawn),110
13,CCOC(=O)c1nc2ccccc2nc1Nc1cc(C)ccc1C,87.2
14,O=C(CCCN1C(=O)CSc2ncccc21)NCC1CCCO1 (stereo not drawn),95.8
15,CC(C)CCN(Cc1ccco1)S(=O)(=O)c1ccc2c(c1)C(C)(C)C(=O)N2C,94.9
16,CCN(CC)CCNC(=O)CN1\C=N/C2=C(C(=NO2)C)C1=O,76.3
17,CCCC/1=C/C(=O)N/2\N=C(/SC2=N1)N(C)CC(=O)NCC3=CC(=CC=C3OC)Br,107
